{"sequences": {"note": "Amino acid sequences for entries named in this document (tags omitted).", "UniProt A7UR33, entry or part of it": "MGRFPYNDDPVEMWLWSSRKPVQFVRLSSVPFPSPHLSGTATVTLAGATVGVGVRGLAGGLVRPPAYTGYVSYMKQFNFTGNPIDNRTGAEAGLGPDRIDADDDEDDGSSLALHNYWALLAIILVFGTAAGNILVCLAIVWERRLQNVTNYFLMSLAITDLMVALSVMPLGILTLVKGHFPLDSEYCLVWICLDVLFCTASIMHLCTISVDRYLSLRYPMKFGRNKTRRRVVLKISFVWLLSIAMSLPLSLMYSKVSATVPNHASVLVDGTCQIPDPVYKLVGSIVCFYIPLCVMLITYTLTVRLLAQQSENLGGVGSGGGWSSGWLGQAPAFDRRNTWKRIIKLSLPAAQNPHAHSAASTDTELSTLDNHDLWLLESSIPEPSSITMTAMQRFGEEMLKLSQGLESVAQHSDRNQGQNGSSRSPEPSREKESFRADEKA"}, "source": "paper PMC6418270", "about": "“The pharmacological and functional characterization of the serotonergic system in Anopheles gambiae and Aedes aegypti: influences on flight and blood-feeding behavior” (Scientific Reports, 2019)", "key": {"AGAP002229": {"target": "AGAP002229 (Anopheles gambiae, UniProt A7UR33)", "test": "Fluo-4 calcium assay in CRE-luc2P HEK-293 cells expressing AGAP002229", "assay_type": "cell-based", "experimental": "A week post-transfection, selective pressure was applied with […] of G418 antibiotic to generate stable lines.\n1 × 10^6 cells per well were seeded into a 96-well black all-clear bottom plate and incubated overnight in 10% FBS/90% DMEM at 37 °C with an atmosphere of 5% CO2. The following day, 2X Fluo-4 Direct calcium dye (Molecular Devices LLC, San Jose, CA) was added to each well and incubated in the same conditions for 45 minutes before the assay was completed. At this time, serial dilutions of the test compounds were prepared in a 96-well clear flat bottom plate. […] Fluorescence measurements continued to be recorded for a total of 120 seconds at 2-second intervals. When testing antagonists, cells were treated with the compound prior to determination of fluorescence levels.\nLuminescence and calcium assay data were normalized and fitted with a non-linear least squares regression to generate dose-response curves, EC50 and IC50 values. Unpaired t-tests or Dunnett’s multiple comparisons test were performed accordingly to compare EC50 or IC50 values. Locomotion was measured based on the distance required for flight recovery. […] In the blood-feeding experiments, the percentage of blood-fed mosquitoes was calculated for each treatment group. […] Size of bloodmeals were compared with an unpaired t-test or Mann-Whitney test after normality was evaluated with the Kolmogorov-Smirnov test. […]"}, "AGAP002232": {"target": "AGAP002232 (Anopheles gambiae, UniProt A0A1S4GEY1)", "test": "Fluo-4 calcium assay in CRE-luc2P HEK-293 cells expressing AGAP002232", "assay_type": "cell-based", "experimental": "The GloResponse™ CRE-luc2P human embryonic kidney (HEK-293) reporter cells were incubated at 37 °C with an atmosphere of 5% CO2, and maintained in Dulbecco’s Modified Eagle Medium (DMEM) supplemented with 10% fetal bovine serum (FBS) and […] hygromycin B. Transfection of the HEK-293 cells with 1 μg of plasmid DNA was performed with Amaxa Nucleofector™ technology (Lonza, Basel, Switzerland) as per manufacturer’s instructions. A week post-transfection, selective pressure was applied with […] of G418 antibiotic to generate stable lines.\n1 × 10^6 cells per well were seeded into a 96-well black all-clear bottom plate and incubated overnight in 10% FBS/90% DMEM at 37 °C with an atmosphere of 5% CO2. […] Fluorescence levels were determined with a FlexStation3 microplate reader, with excitation and emission wavelengths set to 485 and 525 nm, respectively (Molecular Devices LLC). Basal fluorescence levels were measured for 17 seconds, at which time, 25 μl of the agonist compound was added. Fluorescence measurements continued to be recorded for a total of 120 seconds at 2-second intervals. When testing antagonists, cells were treated with the compound prior to determination of fluorescence levels.\nLuminescence and calcium assay data were normalized and fitted with a non-linear least squares regression to generate dose-response curves, EC50 and IC50 values. […]"}}, "note": "Counter-ions that a name gives are not always drawn.", "data": [{"smiles": "CN1CCC(=C2c3ccccc3C=Cc3ccccc32)CC1", "note": "[cyproheptadine, cyproheptadine hydrochloride sesquihydrate]", "values": [{"measurement": "IC50", "setting": "AGAP002229", "result": 130, "unit": "nM"}, {"measurement": "IC50", "setting": "AGAP002232", "result": 5.29, "unit": "µM"}]}]}
